Laboratory results from PubChem BioAssay AID2685 (National Center for Advancing Translational Sciences (NCATS), 2010).
The other results are listed elsewhere or left out. Shown are side measurements of this screen, not its main read-out; they come without a call. Compounds called inactive in the main read-out are mostly missing here. Potencies come from curve fits of mixed quality, noted in brackets.

Test: qHTS Assay for Lipid Storage Modulators in Drosophila S3 Cells;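 for cell number change: cells counted by Cell Tracker Red CMTPX staining in the red channel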
Conditions: BODIPY lipid droplet fluorescence, 18-24 h; for cell number change: measured here: cell count max response, cells fed with added oleic acid
Outline: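 Laser-scanning cytometry quantifies lipid droplet accumulation (500–530 nm total intensity; droplet/cell object ratio) in oleic acid-fed (400 uM added) Drosophila S3 cells treated with a concentration series. 20 uM Triacsin C defined 100% inhibition.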

[1] = measured here: lipid fluorescence (Fed channel) AC50, cells fed with added oleic acid
[2] = measured here: cell number channel AC50, cells fed with added oleic acid

CCC(=O)c1ccccc1OCCCN1CCC(Cc2ccccc2)CC1
cell number change: -25.1% | AC50 [1]: 1840 nM [falling, partial curve]

O=C(CSc1ccccc1C(=O)N1CCN(c2ccccc2)CC1)N1CCCC1
cell number change: -14.6% | AC50 [1]: 51.7 nM [falling, full curve, poor fit]

Cc1cc(C)n2c(Nc3ccc4c(c3)OCCO4)c(-c3ccccc3)nc2n1
cell number change: 54.4% | AC50 [2]: 411 nM [rising, full curve] | AC50 [1]: 1300 nM [rising, full curve]

O=C1C2CC=CCC2C(=O)N1Cc1nnc(-c2ccccc2Br)o1 (stereo not drawn)
cell number change: 11.5% | AC50 [1]: 2590 nM [rising, partial curve, poor fit]

COc1ccc(-c2c(-c3cc(OC)cc(OC)c3)n(C)c3ccc(-c4ccc(N(C)C)nc4)cc23)cc1
cell number change: 9.25% | AC50 [2]: 259 nM [falling, full curve, poor fit] | AC50 [1]: 29100 nM [rising, partial curve, poor fit]

CCOC(=O)c1nn(-c2ccccc2)c(C#N)c1NC(=O)c1nn(CC)cc1Br
cell number change: 67.5% | AC50 [2]: 651 nM [rising, partial curve] | AC50 [1]: 651 nM [rising, partial curve, poor fit]

CCN(CC(=O)Nc1c(F)cccc1F)C(=O)CSCC(=O)Nc1ccc(OC)cc1
cell number change: -16.8% | AC50 [1]: 29100 nM [falling, single point]

COc1ccccc1/C(C)=N/Oc1cc(N)cc([N+](=O)[O-])c1
cell number change: -57.6% | AC50 [2]: 25900 nM [falling, partial curve, poor fit]

COc1ccc(-n2nc(C(=O)N(C)C3CCCCC3)c3ccccc3c2=O)c(OC)c1
cell number change: 11.3% | AC50 [1]: 14600 nM [rising, single point]

Cn1nnnc1SCC(=O)Nc1ncc(Cl)cc1Cl
cell number change: -2.35% | AC50 [1]: 20600 nM [rising, single point]

CCc1ccc(N2CC(C(=O)Nc3ccc(F)cc3)CC2=O)cc1 (stereo not drawn)
cell number change: -9.57%

CC(=O)N1CCN(C(=O)c2cccc(S(=O)(=O)NCc3ccccc3)c2)CC1
cell number change: 28.3% | AC50 [1]: 731 nM [falling, single point]

CCOC(=O)N1CCN(C(=O)c2cc3c(s2)-c2c(C)cccc2OC3)CC1
cell number change: -91.6% | AC50 [2]: 29100 nM [falling, single point]

CCCCCN(C(=O)CCC(=O)OC(C)C(=O)Nc1cccc(C#N)c1)c1c(N)n(CCCC)c(=O)[nH]c1=O (stereo not drawn)
cell number change: -80%

COCCN1C(=O)c2[nH]nc(-c3ccccc3O)c2C1c1ccc(OC)cc1 (stereo not drawn)
cell number change: 10.1% | AC50 [1]: 2310 nM [rising, partial curve]

CCN(CC)CCN(C(=O)c1cc(Cl)sc1Cl)c1nc2cc3c(cc2s1)OCO3
AC50 [1]: 35500 nM [rising, single point]

N#Cc1cnn2ccc(-c3cc(N4CCOCC4)ccc3[N+](=O)[O-])nc12
cell number change: 25.5% | AC50 [2]: 6510 nM [falling, single point]

CC(=O)Nc1cccc2ncccc12
cell number change: 20.7% | AC50 [1]: 18400 nM [rising, single point]

O=C(COC(=O)COc1ccccc1)NCc1ccccc1
cell number change: -0.88%

COc1ccc(C(C[N+](=O)[O-])C2(c3ccc(OC)c(OC)c3)C(=O)c3ccccc3C2=O)cc1 (stereo not drawn)
cell number change: -66% | AC50 [2]: 29100 nM [falling, single point] | AC50 [1]: 6510 nM [falling, partial curve]

CCOC(=O)N1CCC(NC(=O)c2sc(-n3cccc3)nc2C)CC1
cell number change: -1.28% | AC50 [1]: 326 nM [falling, partial curve, poor fit]

O=C(CCCCCN1C(=O)c2ccccc2C1=O)Nc1ccc2c(c1)OCCO2
AC50 [2]: 2060 nM [rising, partial curve] | AC50 [1]: 6510 nM [rising, single point]

CCOC(=O)c1c(NC(=O)CN2C(=O)C(=O)N(CC(C)C)C2=O)sc(C)c1CC
cell number change: 118% | AC50 [2]: 20600 nM [rising, partial curve]

COc1ccc(CNC(=O)COC(=O)c2n[nH]c3ccccc23)cc1
cell number change: -8.65%

Cc1c(CCOC(=O)C23CC4CC(CC(C)(C4)C2)C3)sc[n+]1CC(=O)c1ccccc1
cell number change: -14.2% | AC50 [1]: 5800 nM [falling, full curve, poor fit]

Cc1cc([N+](=O)[O-])ccc1NCc1ccccc1
cell number change: 19%

N#Cc1nc(-c2ccc(OCc3ccccc3Cl)cc2)oc1NCCCn1ccnc1
cell number change: -23.9% | AC50 [1]: 116 nM [rising, full curve, poor fit]

Cc1nnc(SCC(=O)NC2CCCCC2)n(N)c1=O
cell number change: 38.1% | AC50 [2]: 9200 nM [rising, partial curve]

CCOC(=O)C1CCN(Cc2ccc(OCc3ccccc3)cc2)CC1
cell number change: -7.37%

Cc1ccc(C)c(S(=O)(=O)N2CCN(C(=O)Cn3c(C(F)(F)F)nc4ccccc43)CC2)c1
AC50 [1]: 2590 nM [rising, partial curve]

COc1cc([N+](=O)[O-])ccc1NC(=O)Cc1ccc(F)cc1
AC50 [2]: 1460 nM [rising, partial curve] | AC50 [1]: 116 nM [rising, full curve, poor fit]
